HELM strings list residues between dots; [ac] is acetyl, [am] amide, other brackets name non-standard units. Starred links: 1 amine or outer side, 2 acyl side, 3 side chain; linkers in the order of their positions; H or OH if unused. Non-standard residues stand in square brackets, D forms with d. *: point of attachment. X1 = CN(C)c1ccc2c(-c3ccc(C(=O)*)cc3C(=O)[O-])c3ccc(=[N+](C)C)cc-3oc2c1; X4 = NCCCCNC(=O)N=C(N)NCCC[C@H](N[*:1])C(=O)[*:2]; dTyr(β,β-Me2) = CC(C)(c1ccc(O)cc1)[C@@H](N)C(=O)O; Gly(piperidin-4-yl) = N[C@H](C(=O)O)C1CCNCC1; X2 = O=C(CCc1cn(CCCN[*:1])nn1)[*:2]; Pent4ynoyl = C#CCCC(=O)*; Propionyl = CCC(=O)*
Tests used:
[1] = general procedure: Fmoc solid-phase peptide synthesis; H-Leu-2-ClTrt resin; HBTU/HOBt/DIPEA; settings: for final HPLC purity: 220 nm; for step yield: late stage modification step
[2] = general procedure: Fmoc solid-phase peptide synthesis; H-Leu-2-ClTrt; HBTU/HOBt/DIPEA; settings: whole synthesis, 0.79 mmol/g, TFA salt
[3] = conjugation step, TFA salt (hydrotrifluoroacetate)
[4] = TFA salt (hydrotrifluoroacetate)
[5] = whole synthesis, TFA salt (hydrotrifluoroacetate)

Substance | final HPLC purity [1, 3] | conjugation yield [1, 3] | step yield [1, 4] | final HPLC purity [1, 5] | isolated yield [1, 5] | isolated mass ([2]; scale 60 mg resin) | further results
N^α-(3-(1-N-((1-Carboxy-2-(6-(dimethylamino)-3-(dimethyliminio)-3H-xanthen-9-yl)phen-5-yl)1-oxomethyl)aminoprop-3-yl-1H-1,2,3-triazol-4-yl)propanoyl)-2-(piperidin-4-yl)-Gly-Pro-N^ω-[(4-aminobutyl)aminocarbonyl]Arg-Arg-Pro-Tyr-Ile-Leu | 97% | 61% |  |  |  |  | 
N^α-(3-(1-N-((1-Carboxylato-2-(6-(dimethylamino)-3-(dimethyliminio)-3H-xanthen-9-yl)phen-5-yl)1-oxomethyl)aminoprop-3-yl-1H-1,2,3-triazol-4-yl)propanoyl)-N^ω-(propanoyl)-D-Lys-Pro-Arg-Arg-Pro-Tyr-Ile-Leu Bis(hydrotrifluoroacetate) | >99% | 61% | 71% |  |  |  | conjugation yield ([1]; conjugation step, overall from precursor 8, TFA salt (hydrotrifluoroacetate)): 43%
N^α-(3-(N-(1-(8-Sulfonato-5,5,27,27-tetramethyl-16-oxa-20-aza-12-azoniaheptacyclo[15.11.0.03,15.04,12.06,11.020,28.021,26]octacosa-1(28),2,4(12),6(11),7,9,21(26),22,24-nonaen-24-yl)-5-oxopentyn-5-yl)-1-aminoprop-3-yl-1H-1,2,3-triazol-4-yl)propanoyl)-2-(piperidin-4-yl)-Gly-Pro-N^ω-[(4-aminobutyl)aminocarbonyl]Arg-Arg-Pro-β,β-dimethyl-L-Tyr-Ile-Leu-OH Tetrakis(hydrotrifluoroacetate) | 99% | 34% |  |  |  |  | 
N^α-(Pent-4-ynoyl)-2-(piperidin-4-yl)-Gly-Pro-N^ω-[(4-aminobutyl)aminocarbonyl]Arg-Arg-Pro-β,β-dimethyl-L-Tyr-Ile-Leu Tetrakis(hydrotrifluoroacetate) |  |  |  | 97% | 34% |  | isolated mass ([2]; scale 130 mg resin): 60.3 mg
PEPTIDE1{[Cy3B-trz-propanoyl].[pipGly].P.[Arg(carbPr)].R.P.[bbMe2Tyr].I.L}$$$$V2.0 | >99% | 39% | 38% |  |  |  | conjugation yield ([1]; conjugation step, overall from precursor 10a, TFA salt (hydrotrifluoroacetate)): 15%
PEPTIDE1{[GAB].[Pra].[pipGly].P.R.R.P.Y.I.L}$$$$V2.0 |  |  |  | 98% | 20% | 16.1 mg | 
PEPTIDE1{[Pent4ynoyl].K.P.R.R.P.Y.I.L}$$$$V2.0 |  |  |  | >99% | 38% | 26.1 mg | 
PEPTIDE1{[Pent4ynoyl].[dK].P.R.R.P.Y.I.L}$$$$V2.0 |  |  |  | 99% | 10% | 7.1 mg | 
PEPTIDE1{[Pent4ynoyl].[pipGly].P.[Arg(carb)].R.P.Y.I.L}$$$$V2.0 |  |  |  | >99% | 11% | 8.8 mg | 
PEPTIDE1{[Prp].[GAB].[Pra(trzTAMRA)].[pipGly].P.R.R.P.Y.I.L}$$$$V2.0 | >99% | 40% | 31% |  |  |  | conjugation yield ([1]; conjugation step, overall from precursor 9, TFA salt (hydrotrifluoroacetate)): 12%
PEPTIDE1{[TAMRAtrzPrp].[pipGly].P.[Arg(carbPrp)].R.P.Y.I.L}$$$$V2.0 | 99% | 77% | 45% |  |  |  | conjugation yield ([1]; conjugation step, overall from precursor 6 (propionylation + click), TFA salt (hydrotrifluoroacetate)): 35%
Pent4ynoyl-[Gly(piperidin-4-yl)]P[X4]RP[dTyr(β,β-Me2)]IL-OH |  |  |  | 98% | 21% |  | isolated mass ([2]; scale 130 mg resin): 37.2 mg
X1-[X2]K(Propionyl)PRRPYIL-OH | >99% | 99% | 49% |  |  |  | conjugation yield ([1]; conjugation step, overall from precursor 7, TFA salt (hydrotrifluoroacetate)): 48%

— publication PMC11440508 (Journal of Medicinal Chemistry, 2024)
